# According to patent US11235041B2, “Peptides and combination of peptides for use in immunotherapy against various cancers” (Immatics Biotechnologies GmbH, priority 2015, dated 2022):
# Tested on: source genes of the peptides (mRNA)
# Assay: Expression scores and profiles of source genes, in-house RNASeq of tumor and normal tissues (Table 18, FIGS. 2)
# Set-up: species or system human
# Conditions: FIGS. 2A-2I, source gene of the peptide
substance,measurement,value
SEQ ID NO.: 59: peptide found in TNC (gene looked up) (KLLDPQEFTL; listed as Homo sapiens),expression profile of source gene in cancers vs panel of normal tissues,highly over-expressed or exclusively expressed in different cancers

# Expression values are those of the mRNA of the gene that encodes the peptide; a gene is named only where it was looked up.
